# Results published in the supplement of paper PMC8728848.
# The other results are listed elsewhere or left out.
# Key:
# Assay in all cases: glycan array binding signal (z-score within array); higher = stronger binding
# Conditions in all cases: glycan notation: IUPAC condensed, linker removed; mutation: D224N
# Gal(a1-6)Glc = biological target: Gal(a1-6)Glc
# Outline: (§1)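 The Consortium for Functional Glycomics database supplied 3228 glycan arrays, of which those lacking an available protein sequence were dropped. The binding signal, a within-array Z-score, was averaged across arrays of the same protein sequence and across linkers. Negative scores can be read as non-binding.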
# Gal(b1-2)Gal = biological target: Gal(b1-2)Gal
# Outline: as §1
# Gal(b1-3)Gal = biological target: Gal(b1-3)Gal
# Outline: as §1
# Gal(b1-3)Gal(b1-4)GlcNAc = biological target: Gal(b1-3)Gal(b1-4)GlcNAc
# Outline: as §1
# Gal(b1-3)GalNAc = biological target: Gal(b1-3)GalNAc
# Outline: as §1
# [1] = biological target: Gal(b1-3)GalNAc(a1-3)[Fuc(a1-2)]Gal(b1-4)Glc
# Outline: as §1
# [2] = biological target: Gal(b1-3)GalNAc(a1-3)[Fuc(a1-2)]Gal(b1-4)GlcNAc
# Outline: as §1
# Gal(b1-3)GalNAc(b1-3)Gal = biological target: Gal(b1-3)GalNAc(b1-3)Gal
# Outline: as §1
# [3] = biological target: Gal(b1-3)GalNAc(b1-3)Gal(a1-4)Gal(b1-4)Glc
# Outline: as §1
# [4] = biological target: Gal(b1-3)GalNAc(b1-4)Gal(b1-4)Glc
# Outline: as §1
# [5] = biological target: Gal(b1-3)GalNAc(b1-4)[Neu5Ac(a2-3)]Gal(b1-4)Glc
# Outline: as §1
# Gal(b1-3)GlcNAc = biological target: Gal(b1-3)GlcNAc
# Outline: as §1
# [6] = biological target: Gal(b1-3)GlcNAc(a1-3)Gal(b1-4)GlcNAc
# Outline: as §1
# [7] = biological target: Gal(b1-3)GlcNAc(a1-6)Gal(b1-4)GlcNAc
# Outline: as §1
# Gal(b1-3)GlcNAc(b1-2)Man = biological target: Gal(b1-3)GlcNAc(b1-2)Man
# Outline: as §1
# [8] = biological target: Gal(b1-3)GlcNAc(b1-2)Man(a1-3)[Gal(b1-3)GlcNAc(b1-2)Man(a1-6)]Man(b1-4)GlcNAc(b1-4)GlcNAc
# Outline: as §1
# [9] = biological target: Gal(b1-3)GlcNAc(b1-2)Man(a1-3)[Gal(b1-3)GlcNAc(b1-2)Man(a1-6)]Man(b1-4)GlcNAc(b1-4)[Fuc(a1-6)]GlcNAc
# Outline: as §1
# [10] = biological target: Gal(b1-3)GlcNAc(b1-2)Man(a1-3)[GlcNAc(b1-4)][Gal(b1-3)GlcNAc(b1-2)Man(a1-6)]Man(b1-4)GlcNAc(b1-4)GlcNAc
# Outline: as §1
# [11] = biological target: Gal(b1-3)GlcNAc(b1-2)[Gal(b1-3)GlcNAc(b1-6)]Man(a1-6)[Gal(b1-3)GlcNAc(b1-2)Man(a1-3)]Man(b1-4)GlcNAc(b1-4)GlcNAc
# Outline: as §1
# [12] = biological target: Gal(b1-3)GlcNAc(b1-3)Gal(b1-3)GlcNAc
# Outline: as §1
# [13] = biological target: Gal(b1-3)GlcNAc(b1-3)Gal(b1-4)Glc
# Outline: as §1
# [14] = biological target: Gal(b1-3)GlcNAc(b1-3)Gal(b1-4)GlcNAc
# Outline: as §1
# [15] = biological target: Gal(b1-3)GlcNAc(b1-3)Gal(b1-4)GlcNAc(b1-2)Man(a1-3)[Gal(b1-3)GlcNAc(b1-3)Gal(b1-4)GlcNAc(b1-2)Man(a1-6)]Man(b1-4)GlcNAc(b1-4)GlcNAc
# Outline: as §1
# [16] = biological target: Gal(b1-3)GlcNAc(b1-3)Gal(b1-4)GlcNAc(b1-2)[Gal(b1-3)GlcNAc(b1-3)Gal(b1-4)GlcNAc(b1-6)]Man(a1-6)[Gal(b1-3)GlcNAc(b1-3)Gal(b1-4)GlcNAc(b1-2)Man(a1-3)]Man(b1-4)GlcNAc(b1-4)[Fuc(a1-6)]GlcNAc
# Outline: as §1
# [17] = biological target: Gal(b1-3)GlcNAc(b1-3)Gal(b1-4)GlcNAc(b1-3)Gal(b1-4)GlcNAc(b1-2)[Gal(b1-3)GlcNAc(b1-3)Gal(b1-4)GlcNAc(b1-3)Gal(b1-4)GlcNAc(b1-6)]Man(a1-6)[Gal(b1-3)GlcNAc(b1-3)Gal(b1-4)GlcNAc(b1-3)Gal(b1-4)GlcNAc(b1-2)Man(a1-3)]Man(b1-4)GlcNAc(b1-4)[Fuc(a1-6)]GlcNAc
# Outline: as §1
# [18] = biological target: Gal(b1-3)GlcNAc(b1-3)Gal(b1-4)GlcNAc(b1-6)[Gal(b1-3)GlcNAc(b1-3)]Gal(b1-4)Glc
# Outline: as §1
# [19] = biological target: Gal(b1-3)GlcNAc(b1-3)Gal(b1-4)[Fuc(a1-3)]GlcNAc
# Outline: as §1
# [20] = biological target: Gal(b1-3)GlcNAc(b1-3)Gal(b1-4)[Fuc(a1-3)]GlcNAc(b1-6)[Gal(b1-3)GlcNAc(b1-3)]Gal(b1-4)Glc
# Outline: as §1
# [21] = biological target: Gal(b1-3)GlcNAc(b1-3)GalNAc
# Outline: as §1
# [22] = biological target: Gal(b1-3)GlcNAc(b1-6)Gal(b1-4)GlcNAc
# Outline: as §1
# [23] = biological target: Gal(b1-3)GlcNAc(b1-6)GalNAc
# Outline: as §1
# [24] = biological target: Gal(b1-3)GlcNAc(b1-6)[Gal(b1-3)]GalNAc
# Outline: as §1
# Gal(b1-3)GlcNAc6S = biological target: Gal(b1-3)GlcNAc6S
# Outline: as §1
# [25] = biological target: Gal(b1-3)[Fuc(a1-4)]GlcNAc
# Outline: as §1
# [26] = biological target: Gal(b1-3)[Fuc(a1-4)]GlcNAc(b1-2)Man
# Outline: as §1
# [27] = biological target: Gal(b1-3)[Fuc(a1-4)]GlcNAc(b1-2)Man(a1-3)[Gal(b1-3)[Fuc(a1-4)]GlcNAc(b1-2)Man(a1-6)]Man(b1-4)GlcNAc(b1-4)[Fuc(a1-6)]GlcNAc
# Outline: as §1
# [28] = biological target: Gal(b1-3)[Fuc(a1-4)]GlcNAc(b1-3)Gal(b1-3)[Fuc(a1-4)]GlcNAc
# Outline: as §1
# [29] = biological target: Gal(b1-3)[Fuc(a1-4)]GlcNAc(b1-3)Gal(b1-4)[Fuc(a1-3)]GlcNAc
# Outline: as §1
# [30] = biological target: Gal(b1-3)[Fuc(a1-4)]GlcNAc(b1-6)GalNAc
# Outline: as §1
# [31] = biological target: Gal(b1-3)[GlcNAc(b1-6)]GalNAc
# Outline: as §1
# [32] = biological target: Gal(b1-3)[Neu5Ac(a2-6)]GalNAc
# Outline: as §1
# [33] = biological target: Gal(b1-3)[Neu5Ac(a2-6)]GlcNAc(b1-4)Gal(b1-4)Glc
# Outline: as §1
# [34] = biological target: Gal(b1-3)[Neu5Ac(b2-6)]GalNAc
# Outline: as §1
# Gal(b1-4)Gal = biological target: Gal(b1-4)Gal
# Outline: as §1
# [35] = biological target: Gal(b1-4)GalNAc(a1-3)[Fuc(a1-2)]Gal(b1-4)GlcNAc
# Outline: as §1
binder,measurement,setting,value
a L Fucosidase (Thermotoga maritima) (protein) MASMKPRYKPDWESLREHTVPKWFDKAKFGIFIHWGIYSVPGWATPTGELGKVPMDAWFFQNPYAEWYENSLRIKESPTWEYHVKTYGENFEYEKFADLFTAEKWDPQEWADLFKKAGAKYVIPTTKHHDGFCLWGTKYTDFNSVKRGPKRDLVGDLAKAVREAGLRFGVYYSGGLDWRFTTEPIRYPEDLSYIRPNTYEYADYAYKQVMELVDLYLPDVLWNNMGWPEKGKEDLKYLFAYYYNKHPEGSVNDRWGVPHWDFKTAEYHVNYPGDLPGYKWEFTRGIGLSFGYNRNEGPEHMLSVEQLVYTLVDVVSKGGNLLLNVGPKGDGTIPDLQKERLLGLGEWLRKYGDAIYGTSVWERCCAKTEDGTEIRFTRKCNRIFVIFLGIPTGEKIVIEDLNLSAGTVRHFLTGERLSFKNVGKNLEITVPKKLLETDSITLVLEAVEE,glycan array binding signal (z-score),Gal(a1-6)Glc,-0.979
same,glycan array binding signal (z-score),Gal(b1-2)Gal,-0.659
same,glycan array binding signal (z-score),Gal(b1-3)Gal,1.02
same,glycan array binding signal (z-score),Gal(b1-3)Gal(b1-4)GlcNAc,-0.35
same,glycan array binding signal (z-score),Gal(b1-3)GalNAc,0.216
same,glycan array binding signal (z-score),[1],-0.312
same,glycan array binding signal (z-score),[2],-0.456
same,glycan array binding signal (z-score),Gal(b1-3)GalNAc(b1-3)Gal,0.407
same,glycan array binding signal (z-score),[3],1.17
same,glycan array binding signal (z-score),[4],1.1
same,glycan array binding signal (z-score),[5],-0.462
same,glycan array binding signal (z-score),Gal(b1-3)GlcNAc,-0.496
same,glycan array binding signal (z-score),[6],-0.466
same,glycan array binding signal (z-score),[7],0.161
same,glycan array binding signal (z-score),Gal(b1-3)GlcNAc(b1-2)Man,0.366
same,glycan array binding signal (z-score),[8],-0.261
same,glycan array binding signal (z-score),[9],-0.448
same,glycan array binding signal (z-score),[10],0.08
same,glycan array binding signal (z-score),[11],0.638
same,glycan array binding signal (z-score),[12],-0.615
same,glycan array binding signal (z-score),[13],-0.283
same,glycan array binding signal (z-score),[14],-0.873
same,glycan array binding signal (z-score),[15],-0.13
same,glycan array binding signal (z-score),[16],0.356
same,glycan array binding signal (z-score),[17],0.162
same,glycan array binding signal (z-score),[18],-0.509
same,glycan array binding signal (z-score),[19],-0.636
same,glycan array binding signal (z-score),[20],-0.158
same,glycan array binding signal (z-score),[21],-0.822
same,glycan array binding signal (z-score),[22],-0.61
same,glycan array binding signal (z-score),[23],-0.257
same,glycan array binding signal (z-score),[24],-0.501
same,glycan array binding signal (z-score),Gal(b1-3)GlcNAc6S,-0.754
same,glycan array binding signal (z-score),[25],0.151
same,glycan array binding signal (z-score),[26],-1.03
same,glycan array binding signal (z-score),[27],-0.017
same,glycan array binding signal (z-score),[28],-1.02
same,glycan array binding signal (z-score),[29],-0.599
same,glycan array binding signal (z-score),[30],-0.164
same,glycan array binding signal (z-score),[31],0.054
same,glycan array binding signal (z-score),[32],-0.103
same,glycan array binding signal (z-score),[33],-1
same,glycan array binding signal (z-score),[34],-0.445
same,glycan array binding signal (z-score),Gal(b1-4)Gal,-0.621
same,glycan array binding signal (z-score),[35],-0.318

# Quoted from the listing for reference:
binder,measurement,setting,value
a L Fucosidase (Thermotoga maritima) (protein) MASMKPRYKPDWESLREHTVPKWFDKAKFGIFIHWGIYSVPGWATPTGELGKVPMDAWFFQNPYAEWYENSLRIKESPTWEYHVKTYGENFEYEKFADLFTAEKWDPQEWADLFKKAGAKYVIPTTKHHDGFCLWGTKYTDFNSVKRGPKRDLVGDLAKAVREAGLRFGVYYSGGLDWRFTTEPIRYPEDLSYIRPNTYEYADYAYKQVMELVDLYLPDVLWNNMGWPEKGKEDLKYLFAYYYNKHPEGSVNDRWGVPHWDFKTAEYHVNYPGDLPGYKWEFTRGIGLSFGYNRNEGPEHMLSVEQLVYTLVDVVSKGGNLLLNVGPKGDGTIPDLQKERLLGLGEWLRKYGDAIYGTSVWERCCAKTEDGTEIRFTRKCNRIFVIFLGIPTGEKIVIEDLNLSAGTVRHFLTGERLSFKNVGKNLEITVPKKLLETDSITLVLEAVEE,glycan array binding signal (z-score),[23],-0.257
same,glycan array binding signal (z-score),[24],-0.501
same,glycan array binding signal (z-score),Gal(b1-3)GlcNAc6S,-0.754
same,glycan array binding signal (z-score),[25],0.151
same,glycan array binding signal (z-score),[26],-1.03
same,glycan array binding signal (z-score),[27],-0.017
same,glycan array binding signal (z-score),[28],-1.02
same,glycan array binding signal (z-score),[29],-0.599
same,glycan array binding signal (z-score),[30],-0.164
same,glycan array binding signal (z-score),[31],0.054
same,glycan array binding signal (z-score),[32],-0.103
